Data source: PubChem BioAssay AID1259405 (NCATS, 2018)

- Aim: 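Mouse-designed siRNAs used to find CHO productivity engineering targets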 (primary screen)
- Cells: Chinese hamster CHO-K1 ovary cells with stable secreted eGFP expression
- Reagent: single siRNA against mouse genes, 0.8 pmol siRNA per well (2 µl of 400 nM stock)
- Duration: 3 days
- Detection: 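Percent of the per-plate non-targeting control median for intracellular GFP per well by laser scanning cytometry and for cell viability by ATP luminescence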
- Scale: GFP, % of control: higher = more GFP per well, higher productivity; viability (ATP), % of control: higher = more viable cells (more ATP)
- Rule for the call: 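a knock-down is called active if GFP reaches 120% or more of non-targeting control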
This is an unselected part of about 50,000 deposited reagents. Of all reagents, about 4,000 (8%) got an active call. 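Mouse siRNA library applied to hamster cells; one well for each siRNA.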 The numbers tell different reagents against one gene apart.

gene symbol | siRNA no. | GFP, % of control | viability (ATP), % of control | Outcome
Dnaaf9 (dynein axonemal assembly factor 9) | 1 | 59.7 | 56.6 | inactive
Dnaaf9 (dynein axonemal assembly factor 9) | 2 | 61.7 | 48.4 | inactive
Dnaaf9 (dynein axonemal assembly factor 9) | 3 | 94.3 | 99.2 | inactive
Dlat (dihydrolipoamide S-acetyltransferase) | 1 | 74.1 | 92.9 | inactive
Dlat (dihydrolipoamide S-acetyltransferase) | 2 | 161 | 90.4 | active
Or13e8 (olfactory receptor family 13 subfamily E member 8) | 1 | 63.2 | 41.9 | inactive
Or13e8 (olfactory receptor family 13 subfamily E member 8) | 2 | 70.1 | 61.1 | inactive
Or13e8 (olfactory receptor family 13 subfamily E member 8) | 3 | 101 | 128 | inactive
Zfp24 (zinc finger protein 24) | 1 | 65.3 | 74.1 | inactive
Zfp24 (zinc finger protein 24) | 2 | 65.8 | 80.3 | inactive
Zfp24 (zinc finger protein 24) | 3 | 131 | 109 | active
Rps6 (ribosomal protein S6) | 1 | 28.7 | 18.8 | inactive
Rps6 (ribosomal protein S6) | 2 | 94.2 | 68.3 | inactive
Rps6 (ribosomal protein S6) | 3 | 39.7 | 40.9 | inactive
Pofut1 (protein O-fucosyltransferase 1) | 1 | 64.4 | 120 | inactive
Pofut1 (protein O-fucosyltransferase 1) | 2 | 166 | 91.9 | active
Pofut1 (protein O-fucosyltransferase 1) | 3 | 75.4 | 58.5 | inactive
Pofut1 (protein O-fucosyltransferase 1) | 4 | 68.2 | 75 | inactive
Pofut1 (protein O-fucosyltransferase 1) | 5 | 74.3 | 77.9 | inactive
Ints14 (integrator complex subunit 14) | 1 | 103 | 71.5 | inactive
Ints14 (integrator complex subunit 14) | 2 | 161 | 74.7 | active
Ints14 (integrator complex subunit 14) | 3 | 69.9 | 82.7 | inactive
Med10 (mediator complex subunit 10) | 1 | 111 | 56.6 | inactive
Med10 (mediator complex subunit 10) | 2 | 86.8 | 84.6 | inactive
Med10 (mediator complex subunit 10) | 3 | 144 | 109 | active
Nxf1 (nuclear RNA export factor 1) | 1 | 25.5 | 56.1 | inactive
Nxf1 (nuclear RNA export factor 1) | 2 | 109 | 96.2 | inactive
Ushbp1 (USH1 protein network component harmonin binding protein 1) | 1 | 61 | 41.7 | inactive
Ushbp1 (USH1 protein network component harmonin binding protein 1) | 2 | 48.6 | 48.9 | inactive
Ushbp1 (USH1 protein network component harmonin binding protein 1) | 3 | 88 | 94.7 | inactive
Thrb (thyroid hormone receptor beta) | 1 | 85.1 | 70.8 | inactive
Thrb (thyroid hormone receptor beta) | 2 | 70.1 | 67.5 | inactive
Thrb (thyroid hormone receptor beta) | 3 | 98.9 | 93.7 | inactive
Hemk1 (HemK methyltransferase family member 1) | 1 | 86.6 | 96 | inactive
Hemk1 (HemK methyltransferase family member 1) | 2 | 79.3 | 97.1 | inactive
Hemk1 (HemK methyltransferase family member 1) | 3 | 107 | 103 | inactive
Zdhhc8 (zinc finger, DHHC domain containing 8) | 1 | 119 | 57 | inactive
Zdhhc8 (zinc finger, DHHC domain containing 8) | 2 | 86.5 | 74.2 | inactive
Zdhhc8 (zinc finger, DHHC domain containing 8) | 3 | 86.5 | 99.1 | inactive
Lzts2 (leucine zipper, putative tumor suppressor 2) | 1 | 40.6 | 76.3 | inactive
Lzts2 (leucine zipper, putative tumor suppressor 2) | 2 | 108 | 77.1 | inactive
Lzts2 (leucine zipper, putative tumor suppressor 2) | 3 | 70.9 | 45 | inactive
Gpr119 (G-protein coupled receptor 119) | 1 | 85.9 | 52.5 | inactive
Gpr119 (G-protein coupled receptor 119) | 2 | 98.5 | 86.3 | inactive
Gpr119 (G-protein coupled receptor 119) | 3 | 42.4 | 36.3 | inactive
Thoc1 (THO complex 1) | 1 | 44.5 | 67.9 | inactive
Thoc1 (THO complex 1) | 2 | 40.5 | 81.7 | inactive
Thoc1 (THO complex 1) | 3 | 70.7 | 149 | inactive
Creb3l1 (cAMP responsive element binding protein 3-like 1) | 1 | 69.7 | 37.7 | inactive
Creb3l1 (cAMP responsive element binding protein 3-like 1) | 2 | 67.7 | 79.5 | inactive
Creb3l1 (cAMP responsive element binding protein 3-like 1) | 3 | 111 | 104 | inactive
9930038B18Rik (RIKEN cDNA 9930038B18 gene) | 1 | 101 | 81.2 | inactive
9930038B18Rik (RIKEN cDNA 9930038B18 gene) | 2 | 46 | 46.6 | inactive
9930038B18Rik (RIKEN cDNA 9930038B18 gene) | 3 | 78.8 | 110 | inactive
Mtrfr (mitochondrial translation release factor in rescue) | 1 | 78.9 | 77.3 | inactive
Mtrfr (mitochondrial translation release factor in rescue) | 2 | 75.8 | 70.6 | inactive
Mtrfr (mitochondrial translation release factor in rescue) | 3 | 57.5 | 27.4 | inactive
Ercc1 | 1 | 74.6 | 85.1 | inactive
Ercc1 | 2 | 56.1 | 71.7 | inactive
Ercc1 | 3 | 91.4 | 79.7 | inactive
Sypl2 (synaptophysin like 2) | 1 | 52.3 | 76.7 | inactive
Sypl2 (synaptophysin like 2) | 2 | 75.6 | 63.9 | inactive
Sypl2 (synaptophysin like 2) | 3 | 108 | 86.4 | inactive
Dbndd2 (dysbindin domain containing 2) | 1 | 57.5 | 84.1 | inactive
Dbndd2 (dysbindin domain containing 2) | 2 | 77.7 | 94.5 | inactive
Dbndd2 (dysbindin domain containing 2) | 3 | 60 | 61 | inactive
Slc25a23 | 1 | 91.3 | 114 | inactive
Slc25a23 | 2 | 79.5 | 96.4 | inactive
Slc25a23 | 3 | 20.3 | 30.5 | inactive
Snap91 (synaptosomal-associated protein 91) | 1 | 123 | 79.2 | active
Snap91 (synaptosomal-associated protein 91) | 2 | 109 | 64.3 | inactive
Snap91 (synaptosomal-associated protein 91) | 3 | 68.8 | 86.7 | inactive
Chtf8 (CTF8, chromosome transmission fidelity factor 8) | 1 | 50.7 | 82.5 | inactive
Chtf8 (CTF8, chromosome transmission fidelity factor 8) | 2 | 74 | 88.1 | inactive
Chtf8 (CTF8, chromosome transmission fidelity factor 8) | 3 | 68.1 | 122 | inactive
Rab3gap2 (RAB3 GTPase activating protein subunit 2) | 1 | 91.8 | 101 | inactive
Rab3gap2 (RAB3 GTPase activating protein subunit 2) | 2 | 72.9 | 50.9 | inactive
Rab3gap2 (RAB3 GTPase activating protein subunit 2) | 3 | 104 | 65.3 | inactive
Plag1 (pleiomorphic adenoma gene 1) | 1 | 73.2 | 88 | inactive
Plag1 (pleiomorphic adenoma gene 1) | 2 | 34 | 46.2 | inactive
Plag1 (pleiomorphic adenoma gene 1) | 3 | 41.8 | 69.8 | inactive
Fadd (Fas associated via death domain) | 1 | 83.3 | 85.1 | inactive
Fadd (Fas associated via death domain) | 2 | 55.3 | 67.6 | inactive
Fadd (Fas associated via death domain) | 3 | 46.4 | 22.4 | inactive

Part of the list above, set out differently.
| gene symbol | siRNA no. | GFP, % of control | viability (ATP), % of control | Outcome |
| --- | --- | --- | --- | --- |
| Or13e8 (olfactory receptor family 13 subfamily E member 8) | 2 | 70.1 | 61.1 | inactive |
| Or13e8 (olfactory receptor family 13 subfamily E member 8) | 3 | 101 | 128 | inactive |
| Zfp24 (zinc finger protein 24) | 1 | 65.3 | 74.1 | inactive |
| Zfp24 (zinc finger protein 24) | 2 | 65.8 | 80.3 | inactive |
| Zfp24 (zinc finger protein 24) | 3 | 131 | 109 | active |
| Rps6 (ribosomal protein S6) | 1 | 28.7 | 18.8 | inactive |
| Rps6 (ribosomal protein S6) | 2 | 94.2 | 68.3 | inactive |
| Rps6 (ribosomal protein S6) | 3 | 39.7 | 40.9 | inactive |
| Pofut1 (protein O-fucosyltransferase 1) | 1 | 64.4 | 120 | inactive |
| Pofut1 (protein O-fucosyltransferase 1) | 2 | 166 | 91.9 | active |
| Pofut1 (protein O-fucosyltransferase 1) | 3 | 75.4 | 58.5 | inactive |
| Pofut1 (protein O-fucosyltransferase 1) | 4 | 68.2 | 75 | inactive |
| Pofut1 (protein O-fucosyltransferase 1) | 5 | 74.3 | 77.9 | inactive |
| Ints14 (integrator complex subunit 14) | 1 | 103 | 71.5 | inactive |
